These are yes or no findings as the source states them, for the method shown. For some assays here: Binding seen in cells or lysates may run through a third protein. For some assays here: A result given as binding can be weak or reduced; the word gives no strength.
Experiments:
[1] = target: truncated FGFR1 with domain 2 (D2) missing; assay: co-immunoprecipitation with truncated FGFR1 (FIG. 9K)
[2] = target: truncated FGFR1 with domain 3 (D3) missing; assay: co-immunoprecipitation with truncated FGFR1 (D3 missing)
[3] = target: truncated FGFR1 with domain 3 (D3) missing; assay: co-immunoprecipitation, IP: HA of truncated HA-FGFR1, +Gremlin1, immunoblot
FGFR1-D23 = assay: as above
EGFR = assay: pull-down of purified proteins (Gremlin1 with EGFR), immunoblot

B1: Gremlin1 (human gremlin 1, hGREM1) (ligand)
chain: KKKGSQGAIPPPDKAQHNDSEQTQSPQQPGSRNRGRGQGRGTAMPGEEVLESSQEALHVTERKYLKRDWCKTQPLKQTIHEEGCNSRTIINRFCYGQCNSFYIPRHIRKEEGSFQSCSFCKPKKFTTMMVTLNCPELQPPTKKKRVTRVKQCRCISIDLD
modifications: biotin label in the ForteBio assay (site not stated)
B1 was tested, and the binding [1] was “no binding”, the binding [2] was “binds” and the binding [3] was “binds”. For the same binder, the binding (FGFR1-D23) was “binds” and the binding (EGFR) was “no binding”.
